# The other results are listed elsewhere or left out. These are further read-outs of the screen, such as a control signal, another cell line or another target. No call is given for them. The list favours compounds with an active or inconclusive main result. The note in brackets gives the kind of curve behind each potency; many fits are weak.
# Assay: qHTS Assay for Modulators of Lamin A Splicing
# Conditions: HeLa LMNA splicing GFP/RFP minigene ratio, 48 h
# Procedure, shortened: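 S3 HeLa cells stably expressing lamin A-EGFP splicing minigene plus DsRed2, 600 cells/well, 48 h compound exposure at 37C. Laser-scanning cytometry; analysed as GFP (500-530 nm)/RFP (575-640 nm) total intensity ratio; 0.5% DMSO vehicle.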
# [1] = measured here: RFP viability control channel
# [2] = measured here: GFP splicing reporter channel
Compound,AC50 [1],AC50 [2]
Cc1ccc(C(=O)N/C(=C/c2cccs2)C(=O)NCCc2c[nH]c3ccccc23)cc1,"3.98 µM [rising, partial curve]",–
CCOC(=O)C(=CNc1ccc(OC)cc1[N+](=O)[O-])C(=O)OCC,"0.00447 µM [falling, full curve, poor fit]","5.01 µM [falling, partial curve, poor fit]"
Cc1ccc(-n2cc(C(=O)c3cc(Cl)ccc3O)cc(C#N)c2=O)cc1,"12.6 µM [rising, partial curve]",–
Cc1ccc(S(=O)(=O)N(C)Cc2ccc(C(=O)N/N=C3\CC(=O)CC(C)(C)C3)cc2)cc1,"14.1 µM [rising, partial curve]","14.1 µM [rising, single point]"
CCN(CC)S(=O)(=O)c1cccc(C(=O)OCC(=O)c2ccc3c(c2)OCCO3)c1,"35.5 µM [rising, single point]",–
CC(C(=O)N1CCCc2ccccc21)N1CCN(S(=O)(=O)c2ccccc2F)CC1 (stereo unspecified),"14.1 µM [rising, partial curve, poor fit]",–
COc1cc(C(=O)OCC(=O)NCc2ccc(F)cc2)cc(NC(=O)c2cccs2)c1OC,"0.0126 µM [rising, full curve, poor fit]",–
Cc1cccc(NC(=S)N2CCN(Cc3ccc4c(c3)OCO4)CC2)c1C,"28.2 µM [rising, partial curve]",–
CC(C)OC(=O)C(C(=O)OC(C)C)=C1SC=CS1,"0.00631 µM [falling, full curve, poor fit]","22.4 µM [rising, single point]"
CN(C)CCN(Cc1ccco1)C(=O)c1oc2ccccc2c1NC(=O)c1cccc(F)c1,"4.47 µM [falling, single point]",–
COc1ccc2c(c1)C(NC(=O)C(F)(F)F)CC2=O (stereo unspecified),"12.6 µM [falling, partial curve, poor fit]","12.6 µM [falling, partial curve, poor fit]"
COc1ccc(C(=O)/C=C/c2cn(CC(O)CN3CCOCC3)c3ccccc23)cc1 (stereo unspecified),"4.47 µM [rising, partial curve]",–
CCCN(CCC)S(=O)(=O)c1ccc(C(=O)Nc2nnc(CSC)o2)cc1,"3.55 µM [rising, single point]",–
COc1ccc(N2CCN(C(=O)c3cc4c(-c5cccc(OC)c5)nn(C)c4s3)CC2)cc1,"12.6 µM [rising, single point]",–
COc1cccc(/C=N/NC(=O)CN(C2=NS(=O)(=O)c3ccccc32)c2ccccc2)c1,"0.0224 µM [rising, full curve, poor fit]","0.0224 µM [rising, full curve, poor fit]"
CCOC(=O)c1ccc(NC(=O)Cn2nnc3ccccc32)cc1,"35.5 µM [rising, single point]",–
COC(=O)c1sccc1NN1C(=O)c2ccccc2C1=O,–,"12.6 µM [rising, partial curve]"
Cc1ccc(C(=O)NC2c3ccccc3-c3ccccc32)cc1,"2.82 µM [rising, full curve]",–
O=C(Cc1cnn(-c2ccccc2)c1)c1ccc(O)c(O)c1O,"31.6 µM [rising, single point]","31.6 µM [rising, single point]"
O=C(Cn1nnc(-c2ccc(CN3CCOCC3)cc2)n1)Nc1nc(-c2ccccc2)cs1,"31.6 µM [rising, single point]","31.6 µM [rising, single point]"
CCOc1ccccc1C1N=C(c2ccc(OC)cc2)CC(c2ccccc2O)N1 (stereo unspecified),"15.8 µM [falling, single point]","14.1 µM [falling, partial curve]"
CNC1C(OC2C(O[C@@H]3C(O)C(O)[C@@H](N=C(N)N)C(O)C3N=C(N)N)OC(C)[C@@]2(O)CO)OC(CO)C(O)C1O (stereo partly specified),"35.5 µM [falling, single point]","0.0251 µM [falling, full curve, poor fit]"
Cc1nn(-c2cccc(C(F)(F)F)c2)c(Cl)c1/C=N/Nc1cccc(C(=O)O)c1,–,"11.2 µM [rising, partial curve]"
COc1ccc(/C=N/N(Cc2ccccc2)c2ccccc2)cc1O,"35.5 µM [rising, single point]",–
COc1ccc(-c2csc3ncnc(Nc4cc(OC)cc(OC)c4)c23)cc1,–,"17.8 µM [falling, single point]"
CC(C)c1ccc(NC(=O)Cn2cc(S(=O)(=O)Cc3ccccc3Cl)c3ccccc32)cc1,–,"1.78 µM [falling, full curve]"
Cc1cc(C)cc(NC(=O)c2cc(S(=O)(=O)N3CCc4ccccc43)cn2C)c1,"22.4 µM [falling, partial curve, poor fit]",–
CCOC(=O)N1CCC(c2cc(=O)n3[nH]c(C)c(-c4ccc(F)cc4)c3n2)CC1,"35.5 µM [rising, single point]",–

Compound,AC50 [1],AC50 [2]
CC(C)CC(=O)N/C(N)=N/c1nc2ccccc2s1,"31.6 µM [rising, single point]",–
Cc1ccc(S(=O)(=O)N2CCOCC2)cc1C(=O)OCC(=O)Nc1ccc2c(c1)OCO2,"3.16 µM [rising, full curve, poor fit]","3.98 µM [rising, full curve]"
CC1CCN(C(=O)CSc2nc3ccccc3nc2Cc2ccccc2)CC1,–,"1 µM [rising, full curve, poor fit]"
COC(=O)c1ccc(NC(=O)Cn2nc(C)cc2C)cc1,"14.1 µM [rising, single point]",–
CSc1nc2sc3c(c2c(=O)[nH]1)CCCC3,–,"7.94 µM [rising, partial curve]"
CCOc1ccc(CN2C(=O)c3ccccc3C2C(=O)NCCc2ccc(OC)c(OC)c2)cc1 (stereo unspecified),–,"10 µM [falling, partial curve, poor fit]"
O=C(NC1CCCCCC1)C1CCN(S(=O)(=O)c2cnc[nH]2)CC1,"39.8 µM [falling, partial curve, poor fit]",–
Nc1ccc(C23CC4CC(CC(CO)(C4)C2)C3)cc1,"15.8 µM [rising, single point]","14.1 µM [rising, single point]"
CCCCOc1ccc(C(=O)Nc2ccc(C)cc2[N+](=O)[O-])cc1,"11.2 µM [rising, partial curve]",–
CCOc1ccc(CNS(=O)(=O)c2ccc3c(c2)CCCN3C(C)=O)cc1,–,"0.02 µM [falling, full curve, poor fit]"
O=C(CCCc1c[nH]c2ccccc12)Nc1ccc2ccccc2c1,"17.8 µM [rising, single point]","14.1 µM [rising, partial curve]"
Cc1ccc(NS(=O)(=O)c2cccc(C(=O)NN3CCOCC3)c2)cc1,"1.26 µM [falling, full curve, poor fit]",–
O=C(NC(=S)N1CCCc2ccccc21)c1ccc([N+](=O)[O-])cc1,"35.5 µM [rising, single point]",–
CCNC(=S)N/N=C/c1ccc(-c2ccccc2)o1,"0.316 µM [falling, full curve, poor fit]",–
COc1ccc(-n2cc(C(=O)Oc3cc(C)cc(C)c3)c3ccccc3c2=O)cc1,"12.6 µM [rising, partial curve]",–
CCOC(=O)c1[nH]c(C)c(/C(O)=C2\C(=O)C(=O)N(CCN3CCOCC3)C2c2cccs2)c1C (stereo unspecified),"35.5 µM [falling, single point]",–
COc1ccc(/C=N/NS(=O)(=O)c2ccc(C)cc2)cc1OC(=O)c1ccc(C)cc1,"31.6 µM [rising, single point]",–
Cc1ccc(NC(=O)CN(C)C(=O)Cn2ncc(Cl)c(Cl)c2=O)cc1,"35.5 µM [rising, single point]",–
COc1ccccc1CN1CCN(Cc2nc(Cc3ccccc3)no2)CC1,"0.00282 µM [falling, full curve, poor fit]","8.91 µM [falling, partial curve, poor fit]"
Cc1cc2ncn(-c3ncnc4sc5c(c34)CCCC5)c2cc1C,"20 µM [rising, single point]",–
COc1ccc(NS(=O)(=O)c2ccc3[nH]c4c(c3c2)CCCCC4)cc1,–,"35.5 µM [falling, partial curve, poor fit]"
CC1(C)Cc2nc3sc4c(=O)n(CC(=O)NCc5ccccc5)cnc4c3cc2CO1,"12.6 µM [falling, partial curve, poor fit]","31.6 µM [falling, single point]"
COc1ccc(Oc2ncc(CN3CCN(c4ccccc4)CC3)s2)cc1,"35.5 µM [rising, single point]",–
CC(=O)Nc1c(C)nn(-c2ccccc2)c1N1CCC(C(=O)Nc2ccccc2F)CC1,"35.5 µM [rising, partial curve, poor fit]",–
CCCCN1C[C@H](O)[C@@H](O)[C@H](O)[C@H]1CO,"7.94 µM [falling, partial curve, poor fit]",–
O=C(c1ccc(Cl)c(Cl)c1)N1CCC(=O)N(C(COCc2ccc(Cl)cc2)Cc2ccccc2)CC1 (stereo unspecified),"31.6 µM [rising, single point]","14.1 µM [rising, single point]"
Cc1ccc(-c2csc(NC(=S)NC(=O)/C=C/c3ccco3)n2)cc1,"5.62 µM [falling, single point]","5.62 µM [falling, single point]"

# Compounds shown so far containing a CF3 group:
Compound,AC50 [1],AC50 [2]
COc1ccc2c(c1)C(NC(=O)C(F)(F)F)CC2=O (stereo unspecified),"12.6 µM [falling, partial curve, poor fit]","12.6 µM [falling, partial curve, poor fit]"
Cc1nn(-c2cccc(C(F)(F)F)c2)c(Cl)c1/C=N/Nc1cccc(C(=O)O)c1,–,"11.2 µM [rising, partial curve]"
